These are yes or no findings as the source states them, for the method shown. Binding seen in cells or lysates may run through a third protein. Some entries that bind do so weakly or less than the wild type. For some of these results: Sequences can lack the tags named with a protein.

Amino acid sequences for entries named in this document (tags omitted).
UniProt Q9ULT8: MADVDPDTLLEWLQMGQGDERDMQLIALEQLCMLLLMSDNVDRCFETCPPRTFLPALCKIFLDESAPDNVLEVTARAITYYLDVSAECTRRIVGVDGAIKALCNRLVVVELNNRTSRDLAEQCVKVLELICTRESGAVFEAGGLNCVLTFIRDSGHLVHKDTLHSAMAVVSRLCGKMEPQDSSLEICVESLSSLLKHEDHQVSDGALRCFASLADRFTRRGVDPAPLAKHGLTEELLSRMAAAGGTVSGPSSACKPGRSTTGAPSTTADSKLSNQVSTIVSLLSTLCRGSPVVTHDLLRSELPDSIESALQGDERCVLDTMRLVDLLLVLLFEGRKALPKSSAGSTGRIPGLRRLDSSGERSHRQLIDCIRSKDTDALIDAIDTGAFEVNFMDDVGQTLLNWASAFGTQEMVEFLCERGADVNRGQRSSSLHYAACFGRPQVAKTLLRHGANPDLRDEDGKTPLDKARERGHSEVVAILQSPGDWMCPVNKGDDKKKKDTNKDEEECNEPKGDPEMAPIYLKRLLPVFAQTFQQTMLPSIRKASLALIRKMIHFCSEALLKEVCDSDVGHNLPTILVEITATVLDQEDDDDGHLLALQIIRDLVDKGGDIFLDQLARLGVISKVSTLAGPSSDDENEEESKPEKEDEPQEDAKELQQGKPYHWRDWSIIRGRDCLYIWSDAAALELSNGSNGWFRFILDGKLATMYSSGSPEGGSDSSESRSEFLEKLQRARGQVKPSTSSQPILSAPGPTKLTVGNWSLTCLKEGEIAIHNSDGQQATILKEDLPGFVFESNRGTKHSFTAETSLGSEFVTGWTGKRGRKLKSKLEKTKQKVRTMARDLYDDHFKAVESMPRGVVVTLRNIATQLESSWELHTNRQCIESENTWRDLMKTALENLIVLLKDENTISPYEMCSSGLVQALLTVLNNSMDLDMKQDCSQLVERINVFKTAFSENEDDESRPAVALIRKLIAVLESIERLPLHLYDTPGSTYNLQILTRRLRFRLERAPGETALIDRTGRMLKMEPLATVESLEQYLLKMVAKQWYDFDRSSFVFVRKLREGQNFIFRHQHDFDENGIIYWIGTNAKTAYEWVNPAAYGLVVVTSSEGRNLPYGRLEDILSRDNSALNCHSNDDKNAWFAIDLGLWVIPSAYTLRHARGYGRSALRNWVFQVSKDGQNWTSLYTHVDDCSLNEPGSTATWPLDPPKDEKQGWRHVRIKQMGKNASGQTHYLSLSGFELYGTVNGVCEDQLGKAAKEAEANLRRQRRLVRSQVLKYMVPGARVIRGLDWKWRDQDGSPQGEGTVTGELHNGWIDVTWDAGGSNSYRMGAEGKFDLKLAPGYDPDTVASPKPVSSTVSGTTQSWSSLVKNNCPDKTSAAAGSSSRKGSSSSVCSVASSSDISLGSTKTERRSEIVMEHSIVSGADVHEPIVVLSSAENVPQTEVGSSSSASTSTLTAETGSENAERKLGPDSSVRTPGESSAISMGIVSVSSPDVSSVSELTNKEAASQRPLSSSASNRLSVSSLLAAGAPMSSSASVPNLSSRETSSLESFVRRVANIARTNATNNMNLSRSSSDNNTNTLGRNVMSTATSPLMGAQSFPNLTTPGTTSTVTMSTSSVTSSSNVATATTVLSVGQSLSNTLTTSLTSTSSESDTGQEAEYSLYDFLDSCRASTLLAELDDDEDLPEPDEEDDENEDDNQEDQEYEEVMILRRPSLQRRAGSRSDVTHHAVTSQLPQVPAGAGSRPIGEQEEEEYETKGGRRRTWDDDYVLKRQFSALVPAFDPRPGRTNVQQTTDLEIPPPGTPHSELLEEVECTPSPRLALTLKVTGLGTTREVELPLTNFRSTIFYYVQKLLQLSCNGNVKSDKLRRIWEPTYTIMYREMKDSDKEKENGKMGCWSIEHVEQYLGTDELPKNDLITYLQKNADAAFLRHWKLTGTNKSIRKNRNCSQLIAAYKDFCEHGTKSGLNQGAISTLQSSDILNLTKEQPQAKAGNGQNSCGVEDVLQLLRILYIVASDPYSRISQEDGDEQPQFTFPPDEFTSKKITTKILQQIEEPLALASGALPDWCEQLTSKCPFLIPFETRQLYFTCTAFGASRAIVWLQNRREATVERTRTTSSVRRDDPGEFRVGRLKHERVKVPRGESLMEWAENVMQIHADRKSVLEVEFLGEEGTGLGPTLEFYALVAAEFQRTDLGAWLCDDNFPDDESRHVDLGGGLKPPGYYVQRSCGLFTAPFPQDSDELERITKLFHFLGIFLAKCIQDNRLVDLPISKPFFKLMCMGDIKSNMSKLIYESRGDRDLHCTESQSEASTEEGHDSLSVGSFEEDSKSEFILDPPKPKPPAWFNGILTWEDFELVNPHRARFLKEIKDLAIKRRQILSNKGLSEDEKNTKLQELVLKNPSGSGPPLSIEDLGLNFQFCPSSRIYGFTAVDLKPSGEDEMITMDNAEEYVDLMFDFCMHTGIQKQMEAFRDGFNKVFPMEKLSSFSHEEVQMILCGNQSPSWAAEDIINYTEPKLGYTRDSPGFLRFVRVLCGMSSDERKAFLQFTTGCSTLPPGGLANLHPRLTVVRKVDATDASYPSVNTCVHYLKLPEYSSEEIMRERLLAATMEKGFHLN
UniProt O43684: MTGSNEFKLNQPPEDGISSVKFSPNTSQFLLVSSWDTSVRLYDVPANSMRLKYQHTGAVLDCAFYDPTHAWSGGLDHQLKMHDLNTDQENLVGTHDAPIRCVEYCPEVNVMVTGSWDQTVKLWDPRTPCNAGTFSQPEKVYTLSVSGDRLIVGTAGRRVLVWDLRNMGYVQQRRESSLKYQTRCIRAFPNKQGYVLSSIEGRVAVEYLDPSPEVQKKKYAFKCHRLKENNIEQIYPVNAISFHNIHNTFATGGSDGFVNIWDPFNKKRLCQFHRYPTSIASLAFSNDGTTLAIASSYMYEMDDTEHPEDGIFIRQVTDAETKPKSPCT
UniProt O60566: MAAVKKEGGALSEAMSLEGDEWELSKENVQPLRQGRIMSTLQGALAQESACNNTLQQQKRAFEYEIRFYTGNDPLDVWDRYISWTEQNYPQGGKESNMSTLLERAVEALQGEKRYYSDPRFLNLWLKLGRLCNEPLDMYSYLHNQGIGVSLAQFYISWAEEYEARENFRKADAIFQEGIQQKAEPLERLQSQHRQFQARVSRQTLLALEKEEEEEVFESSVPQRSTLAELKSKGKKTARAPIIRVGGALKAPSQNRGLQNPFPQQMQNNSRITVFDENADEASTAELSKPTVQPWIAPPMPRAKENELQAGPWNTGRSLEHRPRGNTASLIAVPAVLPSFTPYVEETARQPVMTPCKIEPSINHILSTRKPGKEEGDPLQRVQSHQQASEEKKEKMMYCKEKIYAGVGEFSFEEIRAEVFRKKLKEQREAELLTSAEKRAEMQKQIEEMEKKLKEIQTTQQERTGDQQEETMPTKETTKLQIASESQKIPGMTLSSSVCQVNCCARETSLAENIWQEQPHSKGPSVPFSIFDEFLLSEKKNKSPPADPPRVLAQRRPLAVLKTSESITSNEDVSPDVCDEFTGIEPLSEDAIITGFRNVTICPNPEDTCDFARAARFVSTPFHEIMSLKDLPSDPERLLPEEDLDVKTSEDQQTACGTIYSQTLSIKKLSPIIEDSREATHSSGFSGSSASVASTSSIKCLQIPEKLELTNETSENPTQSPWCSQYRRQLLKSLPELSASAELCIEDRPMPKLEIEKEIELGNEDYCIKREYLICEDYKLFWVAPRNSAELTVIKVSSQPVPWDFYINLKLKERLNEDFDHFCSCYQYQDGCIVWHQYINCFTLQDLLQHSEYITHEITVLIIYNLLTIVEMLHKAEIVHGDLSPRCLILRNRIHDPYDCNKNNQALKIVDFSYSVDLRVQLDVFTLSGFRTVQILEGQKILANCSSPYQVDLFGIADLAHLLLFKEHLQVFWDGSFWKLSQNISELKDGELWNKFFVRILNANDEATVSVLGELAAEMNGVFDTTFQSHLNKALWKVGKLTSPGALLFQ
UniProt Q13257: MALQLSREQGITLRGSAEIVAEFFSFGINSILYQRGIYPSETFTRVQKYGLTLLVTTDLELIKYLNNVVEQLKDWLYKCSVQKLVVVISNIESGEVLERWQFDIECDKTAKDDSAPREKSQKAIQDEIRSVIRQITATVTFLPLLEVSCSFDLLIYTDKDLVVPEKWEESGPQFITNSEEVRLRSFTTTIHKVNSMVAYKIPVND

The target in test [1] is HECTD1 (endogenous) (human (endogenous in HEK293T)) (UniProt Q9ULT8). Kind of test: co-IP; endogenous HECTD1 precipitated with 4 ug anti-HECTD1 antibody on protein G Dynabeads, normal rabbit IgG as control; Triton lysis buffer, 1 h at RT; cells asynchronous or treated with Nocodazole (18 h, 50 ng/ml); immunoblot.
Another test concerns the target T1, GST-TRABID NZF 1–3 (UniProt Q9UGI0).
T1 sequence: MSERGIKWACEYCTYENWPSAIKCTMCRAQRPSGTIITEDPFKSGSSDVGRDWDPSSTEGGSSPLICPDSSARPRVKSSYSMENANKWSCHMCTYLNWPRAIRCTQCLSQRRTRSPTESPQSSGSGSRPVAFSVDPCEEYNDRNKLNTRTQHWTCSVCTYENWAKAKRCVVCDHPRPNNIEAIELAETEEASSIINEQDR
Briefly: pull-down; 10 ug GST-tagged bait on glutathione magnetic agarose beads, with HEK293T lysate overnight at 4 °C in 150 mM NaCl, 50 mM Tris pH 7.4, 100 uM ZnCl2, 0.1% NP-40; washed in 250 mM NaCl; cells asynchronous (DMSO or 10 uM MG132 for 6 h) or synchronised in G1, S, G2 or M; immunoblot; only the target purified. A general note: Immunoblotting shows a protein as a band on a membrane.

Regarding “BUB3 (endogenous) (from UniProt O43684 1-328)”, the binding result (in test [1]; in the test with GST-TRABID NZF 1–3) was “binds” in each case. With “BUBR1 (endogenous) (from UniProt O60566 1-1050)”, in test [1], the binding entry is “no binding”. Same read-out and setting: then “MAD2 (endogenous) (from UniProt Q13257 1-205)”, with “no binding”.

Source of the values: article PMC9343455.
